Source: doi:10.1101/727214
These are yes or no findings as the source states them, for the method shown. Binding seen in cells or lysates may run through a third protein. Binding can be weak; no strength is given.

The chains behind the UniProt entries cited, without tags or fusion partners. Where a name states a change or a piece, a line headed by the entry shows the natural chain unless it says otherwise. Residues count along the entry.
UniProt O70423: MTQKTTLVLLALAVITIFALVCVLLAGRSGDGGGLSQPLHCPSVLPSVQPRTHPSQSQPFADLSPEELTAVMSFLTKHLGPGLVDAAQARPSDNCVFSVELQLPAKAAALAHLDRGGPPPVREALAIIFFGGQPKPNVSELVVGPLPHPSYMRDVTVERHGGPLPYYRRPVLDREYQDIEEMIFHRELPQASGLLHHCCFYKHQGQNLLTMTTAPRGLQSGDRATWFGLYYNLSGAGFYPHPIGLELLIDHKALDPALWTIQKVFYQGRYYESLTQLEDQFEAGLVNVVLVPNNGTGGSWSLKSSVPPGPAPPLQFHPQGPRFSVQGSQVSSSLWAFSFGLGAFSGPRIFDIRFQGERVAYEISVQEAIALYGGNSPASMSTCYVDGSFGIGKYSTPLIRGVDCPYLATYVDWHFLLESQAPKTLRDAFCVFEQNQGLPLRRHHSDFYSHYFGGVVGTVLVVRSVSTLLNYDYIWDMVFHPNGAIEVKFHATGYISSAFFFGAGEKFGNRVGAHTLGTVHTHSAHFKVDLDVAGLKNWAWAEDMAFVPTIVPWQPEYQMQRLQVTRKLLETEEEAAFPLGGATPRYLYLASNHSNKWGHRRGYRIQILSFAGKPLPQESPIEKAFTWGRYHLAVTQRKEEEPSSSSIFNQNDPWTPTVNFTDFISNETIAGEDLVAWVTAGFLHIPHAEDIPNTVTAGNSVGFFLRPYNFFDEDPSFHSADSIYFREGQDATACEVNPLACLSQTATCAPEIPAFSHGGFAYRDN
UniProt Q64726, residues 18-307: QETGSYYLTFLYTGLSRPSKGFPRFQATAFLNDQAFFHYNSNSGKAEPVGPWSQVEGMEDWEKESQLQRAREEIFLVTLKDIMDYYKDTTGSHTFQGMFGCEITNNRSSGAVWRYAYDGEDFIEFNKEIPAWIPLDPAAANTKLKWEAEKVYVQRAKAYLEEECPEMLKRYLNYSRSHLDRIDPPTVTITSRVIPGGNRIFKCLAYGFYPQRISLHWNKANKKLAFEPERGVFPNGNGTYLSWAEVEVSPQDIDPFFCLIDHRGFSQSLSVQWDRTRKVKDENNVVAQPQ

Target: GST-tagged murine AOC3, secretable form (GST-AOC3) (mouse) (UniProt O70423)
Assay: pull-down

Substance: murine plasma zinc-α2-glycoprotein (ZAG), endogenous (from UniProt Q64726 18-307)
- binding: binds
